Isolated mass and isolated yield data for one substance are collected here from patent US20110230367A1 (SNU R&DB FOUNDATION, priority 2009, published 2011).

The series can be described thus: general procedure: peptide synthesis; link amide MBHA resin (0.64 mmol/g). The settings on record: whole synthesis, scale 32 μmol.

Regarding Ac-LKKLLKLLKKLLKLAG, the isolated mass is given as 4.8 mg and the isolated yield result was “yield 8%”.
